Experimental data reported in the RNAGym collection of RNA variant scans (doi:10.1126/science.aae0568).
This sample is rich in variants without activity.

B1: tRNA (parent)
chain: GUUCCGUUGGCGUAAUGGUAACGCGUCUCCCUCCUAAGGAGAAGACUGCGGGUUCGAGUCCCGUACGGAACG

Variants of: B1
Test: yeast fitness relative to wild type (ratio to wild type); higher = fitter; tRNA-Arg(CCU), competitive growth, 37 C, YPD
Summary of the method: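 The tRNA-Arg(CCU) gene variants were made by chemical synthesis with a 3% per-site mutation rate at 69 sites and inserted at the native genomic locus of Saccharomyces cerevisiae. After pooling, the strains were competed in YPD at 37°C for 24 hours in six parallel replicates. Gene amplicons from the start population and each end population were read by 100-nucleotide paired-end sequencing, and Darwinian fitness relative to wild type was taken from genotype frequency changes. Genotypes needed ≥ 100 starting reads, and estimates < 0.5 were set to 0.5.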

Yeast fitness, 0.69:
C5U A14G A65G

Yeast fitness, 0.666:
C4A G12A

Yeast fitness, 0.695:
C31U C60U U64C

Yeast fitness, 0.683:
U7A C31U

Yeast fitness, 0.914:
U2C A42C

Yeast fitness, 0.631:
A14G G52A

Yeast fitness, 0.559:
G50C C55A A57C

Yeast fitness, 0.591:
C29U C66A

Yeast fitness, 0.96:
G9A A42G

Yeast fitness, 0.552:
G58A C60U C62A

Yeast fitness, 0.681:
U3A A36U A57G G63C

Yeast fitness, 0.592:
U26A C34A

Yeast fitness, 0.698:
C30G A45G

Yeast fitness, 0.682:
U2C C29A C34G A43U G52A

Yeast fitness, ≤ 0.5:
U3C G23C C66U
G6A C27U C29A G58C C66U
C5G U26C A36G C55G U59A U64G
U2G A21U C22U
C5U C49U C66A G67A
U2A A15G A37U C60A
A15C G48C C66U G67C A70G
U2A A21C C22U
C22A G25A C27U G67U A69C
C5A A14G A20U A37C C49A
G23A A57G G58A C62U A70U
C11U C24U G41A C62A
C24G C31G U47A
U8C C27U C34G C60A A69U
C29U C33U U35C U54A
C34U C66G A70U
G18C C22G A65G A70U
G25C C29G U32G G51C
C27U G38C A69U
U3C G6C A14U G25A G38A
C11G G18A A21G
A20G C34G A37C C66U
C27G C31U C33A A36U C49A C55G
C24A A36U U59C C66U A70C
C5G G17A C30A C31A C49U C55G
U7C G18A C31A A69U
C11A A15G A20G A37C G50A
C4U G18C U54G A57G C66A A69C
C24G C61A
A37C A45G A65C
G9A C30U G38C
C29G C49A C55G A70C
A14U G25C C30U U47C
A15G G38C U64A A65G G68A A69C
G23C A45U A65C
G52A G58A G63A
C4G A21C C22A C27G C34U C49U G56A G67C
U3A A14G C46G G50C
C4A C11G A14U A42U
U8A G23C G63C
C11G C30A U47G U53C G67C
C4G G18A A40C G56C
G6C U8A G18A A45U U53C G67A A69C
C27G A40G G48A A57C U64A
G17C G18A C31A C66A
A21G C29U G38A G63A
U3A C4U C31A C66G G68C
G9A U32C C33G A37G G51A
U13A C34U A40U G63A A65C
U7C C11A C27G
C30G C33G C34U A42U C66U G67C
U28C C33G G38A C62U C66G A70G
U2A C30A A42C
G10A C33A
U8C C30A C46G U54A
C5A C34A A40G C66A
C4G C24U G48A U64A
G18A G68C A69U
A21C A43U G44A
A14C C62G C66U
C4A U19A A40U G48C
U3A C5U A15C A36U A40G C49G G67U
A20G C46U C49A C62U
G6C A14C A21C A42G
C11G U26A G44C C62A
A36C A40U G48A
G12A C30U U32G A36U G39C
G17A A21G U28G C62G
G23C C27G C61U
G51C G52A U59G
U8C A42C A65G C66G
C11U C29U C61U U64C
C11G A15U C22U A42G G68C
U8G C27A U35C C61A G67A
A21C C22A U26C U35C C55G C62G
G12A U13A A37G A40G U59A
G10A C49G G68C
C24U C30U G68C
C24A G44C C49A A69C
C5A C29A A45U
G17C C24G U28A C30U C62G C66G
C24U C29A A65C
U2A A15C C27U U28A A40U
C22A G23C C49G
U28A C62U C66A
C11G G23C A37G G48C G52C C55U
C31G G44A G51C U54C A69C
G6C U16G C31U
U7C C62G A65G
A15C U16C A70U
C24G C55U
U3C C30A A40U G58U
U2C C30U A37C G38C A65C
A57C C61G
G10C G25C U26C A70U
G23C C27A A57U A69U
A15C A43C C46G A57U
U8A G12C U47A C55A
C22A C24G C34G A43U
A40U U53A C61U
A15G C30U G41A A69C
G10A U28C A42U
G12C A21C C66A
C4G C11G C49A
C30G C55G
U8A A40C C46U G52A
C4A A14G C24U U32G A42U A43G C66U
C5U C29U A57G U59C
C29U C33U A43G
G10A C11U A20G A40G C55G A69C
U8C A20G A65G G68A
A21U G51A G52A
G23C G58A A69C
A37C A40G G44C G52C U59C C66U
U8A C11G C29A C46G
U8C G23C C29G A45U C66U A69C
C31A A40G A43C G44A A70U
A14C C30G G68C
A15G C22A U26A A40U U54G A65U G67A
U2C U8A A20U C27U A65C
C11U C29A U35A G56A
C31A G56C G58A G63C A65U
C11A U13A A20U G50C U53A A57U A65U
A36G G52A C66A A69U
G9C C34G U54G
C5A U19A C30G C49G
G6A C29U A42C G48C
C24G C30U G38C A65C
C22U C33A U53C
G10A C27U A40C U47A G48C C66U
A43G C49U C60A C62A
G12A A43U C62G A65G
G48C C61A G63C
C27G C34U C66U
C4G C11U A14G G44C C61G
C4U C33A G67C
G17A C30G A69C
A20G C29U A43C U59A
A14G A42C C61U
U2C U7A A37G A42U G48C U54A

Yeast fitness, 0.656:
C5A U19G A43U

Yeast fitness, 0.831:
G38A C60U

Yeast fitness, 0.975:
C5G G56A

Yeast fitness, 0.546:
A20G C34G A43U C66U

Yeast fitness, 0.509:
C24G G25C A40C A42U U47A C61G C66G

Yeast fitness, 0.86:
A43G G56A

Yeast fitness, 0.913:
U28C A42G

Yeast fitness, 0.564:
U3A A21C C33U U35A G51C G68C A70U

Yeast fitness, 0.568:
A14G A42G G48C

Yeast fitness, 0.722:
U28C U32C C46G
C22G U47C A70U

Yeast fitness, 0.649:
A45U C66A

Yeast fitness, 0.57:
G39C G48C A69C
